Most values lie at the floor of the assay. Slopes are relative: functional sequences can read slightly below zero.
Test system: Saccharomyces cerevisiae PS128 hsf1 delta, HSF1(1-493) fusion
Test: growth estimate (transactivation domain function in HSF1 fusion, heat-shock survival) (a.u. (slope of normalised read count over time)); higher = stronger growth at 37°C, i.e. more transactivation activity
Details: library: random library

| Substance | growth estimate |
| --- | --- |
| SRADCPPIKACLL | < -0.25 |
| CWY | < -0.25 |
| TLKESLTRLDVRKLMRR | < -0.25 |
| KFNHGVYQLLLQPRDKPAIA | < -0.25 |
| GAVLIGILRQDKEVDLGGCF | -0.246 |
| VTGSK | < -0.25 |
| PGILL | < -0.25 |
| DLNSLRC | < -0.25 |
| SVLRQVSVDGESSVTGSCHV | < -0.25 |
| SNSSEGWERLQECTRHGHEV | < -0.25 |
| AAV | < -0.25 |
| NLTCSLEVLTRDKVDGFFQQ | < -0.25 |
| GTHFLVTGGNNGPALSGTSR | < -0.25 |
| RDCRTSWDRGSLRKPTPVYW | < -0.25 |
| FSKTGSSTRISTSLRGPATR | < -0.25 |
| LSS | < -0.25 |
| RLWSRGLQTRNCRVGLLGMS | < -0.25 |
| GGEDDIICKGLWPIVGGPKE | < -0.25 |
| ALGSDAHRGSCPIH | < -0.25 |
| VSEHGSRVDSQVLTVILASE | < -0.25 |
| LCAGVLRGPSTCAP | < -0.25 |
| GGLFKSLVVKSKELLVFQII | < -0.25 |
| KTRDLTVRQLERGCPPHVIP | < -0.25 |
| PSNCMAG | < -0.25 |

In a second layout: entries from further up.
DLNSLRC
  growth estimate: < -0.25
SVLRQVSVDGESSVTGSCHV
  growth estimate: < -0.25
SNSSEGWERLQECTRHGHEV
  growth estimate: < -0.25
AAV
  growth estimate: < -0.25

(list continues)

| Substance | growth estimate |
| --- | --- |
| GFYTISCGCTPCRGFKIHPA | < -0.25 |
| NVLR | < -0.25 |
| EPYHYIKH | < -0.25 |
| ALLSNSKDFVGKSVASAGAE | < -0.25 |
| LAISCLPYPSSKC | < -0.25 |
| VTGLFSGAHACST | < -0.25 |
| RVSCETDLTCANSGEDSIDL | < -0.25 |
| NGPTGSESRFDETASRRHTD | < -0.25 |
| GMYSLCRWIESRGYRPIFQL | < -0.25 |
| PQWVNSGTSTPNALLAGGNG | < -0.25 |
| SGATEHLHLNMGIAWAMRIH | < -0.25 |
| NLGQFTVEPERYDHRWPGNS | < -0.25 |
| GRPLCIGGGGRLQTLSLSPR | < -0.25 |
| YSAGAPNGYERWPDADTLAE | < -0.25 |
| QLSA | < -0.25 |
| SDLHN | -0.229 |
| TSL | < -0.25 |
| PAAYRD | < -0.25 |
| VIMGS | < -0.25 |
| RNSRCPGTRAMGLRILM | < -0.25 |
| CPLKKSPAPDR | < -0.25 |
| CTMSGADTPLL | < -0.25 |
| EFYRTTGGRLRIGVCRCALF | < -0.25 |
| NRRSNGLAAPGRATYAGQSR | < -0.25 |

| Substance | growth estimate |
| --- | --- |
| GLTLRFALTTENRWLGR | < -0.25 |
| VSFGVCTLLCEAGPSFAV | < -0.25 |
| QGDPDVRKKYATLTTPCRCH | < -0.25 |
| RTVSRNCQRVA | < -0.25 |
| VIDFTDVRCDEGLCVVSACT | < -0.25 |
| TRGSG | < -0.25 |
| RRSLGRRESNAGI | < -0.25 |
| AQGRIEAIRRKFSSQLWRTP | < -0.25 |
| EHEA | < -0.25 |
| RANQKARCFVCGSGRAGIVG | -0.243 |
| FTITMMRPRRIRSGRLRSRG | < -0.25 |
| TTDDIGDKLPLRE | < -0.25 |
| LVFGYECPWFAPGMMPRHLP | < -0.25 |
| GFRQGQRTSH | < -0.25 |
| RSRQAGPHSLHRPSIAFHHR | < -0.25 |
| KVHVYVYLLSRPKSIMH | < -0.25 |
| GKGLPVTYVRPCNMCGD | < -0.25 |
| DNINQVSQG | < -0.25 |
| SKIYTWKSARAGAQHAIYTS | < -0.25 |
| ITFPRVTVHGGRVRGGTAHV | < -0.25 |
| FIGHELVAR | < -0.25 |
| ESFCPVHPPKKGLFRCS | < -0.25 |
| LTPIPLGPSPSRRGS | < -0.25 |
| GVNNQASAHLLLTCRKAQYL | < -0.25 |

Look-ups from the results shown.
Under growth estimate, TRGSG has the entry < -0.25
Under growth estimate, DLNSLRC has the entry < -0.25

Following part

| Substance | growth estimate |
| --- | --- |
| RPETANCYLSGDPRQRHRPC | < -0.25 |
| WRSCLKELDPVHEISNVQIR | < -0.25 |
| HHWEIPLRRVGPSSHIGDQL | < -0.25 |
| LAVLGVPNARFRRCRDVPLV | < -0.25 |
| GRSAGVLAHLKPSVGTPWLE | < -0.25 |
| RGSCRKRGHGHRQQERTTPF | < -0.25 |
| MDFVS | < -0.25 |
| RLVAGKACGHVLMVRLRKCH | < -0.25 |
| LGVAPMMLESLGCPE | < -0.25 |
| SQEENLKPTPSVVPGVVHVS | < -0.25 |
| SEIVGVLRVRTKVPCTINRR | < -0.25 |
| EEKVRPTHLGDYKRMIWTMR | < -0.25 |
| GGGNFMVGSIAIQ | < -0.25 |
| IPR | < -0.25 |
| GLLNFAHVHLWAVHAELEYP | < -0.25 |
| WHGLPHRVQAHTDCSNSF | < -0.25 |
| VGLHTRLT | < -0.25 |
| MFNRTKTAALGTRDPGIRGL | < -0.25 |
| IGSPCGALVSVSCLLGSVLS | < -0.25 |
| VSAVGRGTLRSFSVERFLPD | < -0.25 |
| ANNRGHQKRLGVRPSC | < -0.25 |
| NLDSAPRSLTDGALNIQEVT | < -0.25 |
| SSRQYRHRRLLEDGG | < -0.25 |
| CVWIKF | < -0.25 |

| Substance | growth estimate |
| --- | --- |
| RECPMSVQWVRHINRASPTR | < -0.25 |
| LKLMIVVDGI | < -0.25 |
| SDLYEIRRKTVDVVCAGHEA | < -0.25 |
| KLDEVGLGR | < -0.25 |
| WAGLPFRVRLQKQGVPDVSR | -0.243 |
| GCAACLVNCEGLPWLST | -0.246 |
| ILAKRKRESPFRTPFRKSGV | -0.246 |
| GQEE | < -0.25 |
| PDYSIEC | < -0.25 |
| RASTAT | < -0.25 |
| LSSTL | < -0.25 |
| PRIESFVGLRDTKVYGHSTL | < -0.25 |
| RSSNMNVLVYDSSTRSRQPL | < -0.25 |
| CVRSSMDLLVTLI | < -0.25 |
| GEYSVSETASGDPGADIKKS | < -0.25 |
| FVVLTQAAVAPM | < -0.25 |
| VLVLELSPPGTTEWS | -0.191 |
| VGSSALSADRGGASYQSQDS | < -0.25 |
| PGTFGVRTVSYNDSRASLDL | < -0.25 |
| LWLLVHYRFRF | < -0.25 |
| TMDTRYTHDSILPAKLSRLP | < -0.25 |
| LGKTRSVVQPVGRSQASAGY | < -0.25 |
| LPTGSCRALRQPCRLDGEPR | < -0.25 |
| GFLALRSSSMQICPRL | -0.246 |

| Substance | growth estimate |
| --- | --- |
| TAAG | < -0.25 |
| IFAGSAPPSRIMGILFGGLP | < -0.25 |
| RYQTGTVMKYRGSGVHLILA | < -0.25 |
| WTVKFL | < -0.25 |
| SPCGRWAVRGPSESRNIKWT | < -0.25 |
| ALSYALHPVGR | < -0.25 |
| LQGRFAQINQGRPRSWG | < -0.25 |
| VCGSQFAETEKYQAGLG | < -0.25 |
| NLNDSHGAMVRFRTVPDYSC | < -0.25 |
| GLPVARSWGIPRPGP | < -0.25 |
| LPRLAHL | < -0.25 |
| LHVLCWNQEFRSCPPCADST | < -0.25 |
| RDIRACSVRIDPAALCSPEP | < -0.25 |
| VSTVPGARWTVSARSGSCTT | < -0.25 |
| LRNEWCPVGSE | < -0.25 |
| TSLAGNRWHGGGLMRTVLCL | < -0.25 |
| GVARAGFLGARTRWTGAQQG | < -0.25 |
| SVVPFQYQ | < -0.25 |
| RSTTIHVFLPVDLWLGMAGW | < -0.25 |
| GMIDRGGVCIRRPGLTMS | < -0.25 |
| WHM | < -0.25 |
| DIDGS | < -0.25 |

Source: the supplement of paper PMC5949888
